Experimental data: publication PMC10067937
Results are given in words; binding and its absence hold for the method and conditions named. In cells and extracts the contact can be indirect. Some binding calls cover weakened binding; strength is not graded here.

By UniProt entry, the sequences of proteins in these tests, tags left out.
UniProt Q92508: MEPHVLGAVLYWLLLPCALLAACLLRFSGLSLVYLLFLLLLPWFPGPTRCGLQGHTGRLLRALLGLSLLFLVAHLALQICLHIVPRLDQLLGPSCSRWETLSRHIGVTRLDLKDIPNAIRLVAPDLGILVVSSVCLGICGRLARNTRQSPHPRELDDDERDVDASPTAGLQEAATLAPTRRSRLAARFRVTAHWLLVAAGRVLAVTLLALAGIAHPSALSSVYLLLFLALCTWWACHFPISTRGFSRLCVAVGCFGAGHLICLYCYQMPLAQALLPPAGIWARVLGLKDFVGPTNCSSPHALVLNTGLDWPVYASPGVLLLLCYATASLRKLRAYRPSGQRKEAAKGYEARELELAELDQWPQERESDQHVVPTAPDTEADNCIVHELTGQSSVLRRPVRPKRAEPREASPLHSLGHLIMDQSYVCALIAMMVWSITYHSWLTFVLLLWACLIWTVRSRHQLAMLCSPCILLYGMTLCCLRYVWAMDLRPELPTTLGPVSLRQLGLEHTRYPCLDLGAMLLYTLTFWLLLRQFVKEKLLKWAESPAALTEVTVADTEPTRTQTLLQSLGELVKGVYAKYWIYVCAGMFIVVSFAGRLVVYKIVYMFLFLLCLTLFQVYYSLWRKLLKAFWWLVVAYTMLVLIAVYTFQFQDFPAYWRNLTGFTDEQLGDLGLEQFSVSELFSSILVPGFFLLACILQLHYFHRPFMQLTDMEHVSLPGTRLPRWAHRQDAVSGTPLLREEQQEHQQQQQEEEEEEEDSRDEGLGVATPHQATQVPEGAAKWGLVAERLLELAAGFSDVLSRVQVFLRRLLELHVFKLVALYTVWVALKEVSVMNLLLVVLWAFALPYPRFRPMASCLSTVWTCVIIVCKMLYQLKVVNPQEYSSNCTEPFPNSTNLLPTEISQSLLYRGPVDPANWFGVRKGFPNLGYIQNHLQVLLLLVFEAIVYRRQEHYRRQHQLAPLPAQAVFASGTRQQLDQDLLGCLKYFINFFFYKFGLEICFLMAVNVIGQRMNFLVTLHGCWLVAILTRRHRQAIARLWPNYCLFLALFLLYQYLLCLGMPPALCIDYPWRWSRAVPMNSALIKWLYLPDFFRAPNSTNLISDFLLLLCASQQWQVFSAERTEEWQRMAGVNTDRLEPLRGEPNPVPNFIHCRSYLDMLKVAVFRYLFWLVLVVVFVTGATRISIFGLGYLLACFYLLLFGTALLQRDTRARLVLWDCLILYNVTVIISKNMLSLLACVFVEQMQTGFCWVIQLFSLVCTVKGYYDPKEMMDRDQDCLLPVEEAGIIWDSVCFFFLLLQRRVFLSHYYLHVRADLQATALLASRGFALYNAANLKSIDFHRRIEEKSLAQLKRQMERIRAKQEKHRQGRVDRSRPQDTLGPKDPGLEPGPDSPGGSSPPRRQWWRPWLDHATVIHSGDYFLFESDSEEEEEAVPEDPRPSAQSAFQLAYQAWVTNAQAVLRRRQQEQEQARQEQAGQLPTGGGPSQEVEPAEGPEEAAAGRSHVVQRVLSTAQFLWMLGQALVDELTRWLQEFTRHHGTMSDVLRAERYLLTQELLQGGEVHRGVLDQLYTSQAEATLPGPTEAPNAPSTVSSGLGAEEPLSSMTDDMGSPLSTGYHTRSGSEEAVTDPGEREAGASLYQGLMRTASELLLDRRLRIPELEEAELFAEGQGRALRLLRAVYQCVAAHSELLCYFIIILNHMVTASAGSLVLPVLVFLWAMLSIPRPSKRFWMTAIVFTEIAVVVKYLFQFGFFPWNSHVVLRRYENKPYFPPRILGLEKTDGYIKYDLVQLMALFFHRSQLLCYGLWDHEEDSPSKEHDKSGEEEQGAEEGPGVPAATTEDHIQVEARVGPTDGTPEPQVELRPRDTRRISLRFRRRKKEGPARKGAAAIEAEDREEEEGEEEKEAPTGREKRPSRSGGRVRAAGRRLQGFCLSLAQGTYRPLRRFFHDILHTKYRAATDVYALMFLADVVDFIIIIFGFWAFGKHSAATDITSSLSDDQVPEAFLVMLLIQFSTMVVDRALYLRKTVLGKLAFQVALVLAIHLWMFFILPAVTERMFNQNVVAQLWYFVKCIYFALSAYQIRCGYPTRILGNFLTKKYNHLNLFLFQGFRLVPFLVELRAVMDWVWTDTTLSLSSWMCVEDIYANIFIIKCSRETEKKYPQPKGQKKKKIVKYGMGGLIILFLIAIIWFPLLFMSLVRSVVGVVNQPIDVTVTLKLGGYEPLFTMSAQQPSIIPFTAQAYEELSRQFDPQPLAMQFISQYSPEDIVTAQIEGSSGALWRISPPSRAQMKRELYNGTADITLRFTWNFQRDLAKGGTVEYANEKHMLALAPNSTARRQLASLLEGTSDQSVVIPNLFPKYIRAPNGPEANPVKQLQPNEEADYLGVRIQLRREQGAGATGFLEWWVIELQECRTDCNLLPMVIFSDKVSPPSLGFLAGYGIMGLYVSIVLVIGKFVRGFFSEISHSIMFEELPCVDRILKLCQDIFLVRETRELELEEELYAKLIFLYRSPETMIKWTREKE

B1: CDH5-mVenus (Cadherin-5, VE-cadherin), in COS-7 cells (protein, UniProt P33151 48-784)
chain: DWIWNQMHIDEEKNTSLPHHVGKIKSSVSRKNAKYLLKGEYVGKVFRVDAETGDVFAIERLDRENISEYHLTAVIVDKDTGENLETPSSFTIKVHDVNDNWPVFTHRLFNASVPESSAVGTSVISVTAVDADDPTVGDHASVMYQILKGKEYFAIDNSGRIITITKSLDREKQARYEIVVEARDAQGLRGDSGTATVLVTLQDINDNFPFFTQTKYTFVVPEDTRVGTSVGSLFVEDPDEPQNRMTKYSILRGDYQDAFTIETNPAHNEGIIKPMKPLDYEYIQQYSFIVEATDPTIDLRYMSPPAGNRAQVIINITDVDEPPIFQQPFYHFQLKENQKKPLIGTVLAMDPDAARHSIGYSIRRTSDKGQFFRVTKKGDIYNEKELDREVYPWYNLTVEAKELDSTGTPTGKESIVQVHIEVLDENDNAPEFAKPYQPKVCENAVHGQLVLQISAIDKDITPRNVKFKFILNTENNFTLTDNHDNTANITVKYGQFDREHTKVHFLPVVISDNGMPSRTGTSTLTVAVCKCNEQGEFTFCEDMAAQVGVSIQAVVAILLCILTITVITLLIFLRRRLRKQARAHGKSVPEIHEQLVTYDEEGGGEMDTTSYDVSVLNSVRRGGAKPPRPALDARPSLYAQVQKPPRHAPGAHGGPGEMAAMIEVKKDEADHDGDGPPYDTLHIYGYEGSESIAESLSSLGTDSSDSDVDYDFLNDWGPRFKMLAELYGSDPREELLY
B2: CDH5 coexpressed with PIEZO1 for co-immunoprecipitation (protein, UniProt P33151 48-784)
chain: DWIWNQMHIDEEKNTSLPHHVGKIKSSVSRKNAKYLLKGEYVGKVFRVDAETGDVFAIERLDRENISEYHLTAVIVDKDTGENLETPSSFTIKVHDVNDNWPVFTHRLFNASVPESSAVGTSVISVTAVDADDPTVGDHASVMYQILKGKEYFAIDNSGRIITITKSLDREKQARYEIVVEARDAQGLRGDSGTATVLVTLQDINDNFPFFTQTKYTFVVPEDTRVGTSVGSLFVEDPDEPQNRMTKYSILRGDYQDAFTIETNPAHNEGIIKPMKPLDYEYIQQYSFIVEATDPTIDLRYMSPPAGNRAQVIINITDVDEPPIFQQPFYHFQLKENQKKPLIGTVLAMDPDAARHSIGYSIRRTSDKGQFFRVTKKGDIYNEKELDREVYPWYNLTVEAKELDSTGTPTGKESIVQVHIEVLDENDNAPEFAKPYQPKVCENAVHGQLVLQISAIDKDITPRNVKFKFILNTENNFTLTDNHDNTANITVKYGQFDREHTKVHFLPVVISDNGMPSRTGTSTLTVAVCKCNEQGEFTFCEDMAAQVGVSIQAVVAILLCILTITVITLLIFLRRRLRKQARAHGKSVPEIHEQLVTYDEEGGGEMDTTSYDVSVLNSVRRGGAKPPRPALDARPSLYAQVQKPPRHAPGAHGGPGEMAAMIEVKKDEADHDGDGPPYDTLHIYGYEGSESIAESLSSLGTDSSDSDVDYDFLNDWGPRFKMLAELYGSDPREELLY

Columns and labels:
[1] = molecular target: human PIEZO1-mTurquoise2 (human) (UniProt Q92508); experiment: FRET or BRET; FRET by FLIM of the donor PIEZO1-mTurquoise2 with an acceptor-tagged partner coexpressed in COS-7 cells, fixed with 4% paraformaldehyde; two-photon excitation at 800 nm; peak lifetime of whole cells, cell-cell junctions or non-junctional regions; static dishes, or slides preconditioned 24 h at 10 dyn.cm^-2, 30 min static, then 10 min shear or static
[2] = molecular target: C-terminal HA-tagged full length human PIEZO1 (T1) (human) (UniProt Q92508); experiment: co-IP; 500 μg lysate of transiently transfected HEK 293 cells (0.5% Nonidet P40 substitute, 10 mM Tris, 150 mM NaCl, 0.5 mM EDTA, pH 7.4) with 1 μg anti-HA (3F10) at 4 °C, Protein G agarose; blots with anti-PECAM1 or anti-CDH5

Row | Binder | binding [1] | binding [2]
1 | B1 | binds | 
2 | B2 |  | binds
